Literature values in US20210393636A1, “TREATMENT OF CNS AND DEVELOPMENTAL DISORDERS USING HIGH DOSE 5-FORMYL-(6S)-TETRAHYDROFOLATE” (priority 2019, published 2021).
For at least one compound, name, drawing or mass did not settle the structure.

Conditions: parenteral 5 mg twice weekly or oral 0.5-20 mg/kg/day; patients with in-born errors of metabolism or CSF transport disorders; cited from earlier work

Nc1nc2c(c(=O)[nH]1)N(C=O)C(CNc1ccc(C(=O)N[C@@H](CCC(=O)O)C(=O)O)cc1)CN2 (stereo partly shown) [Folinic acid, 5-formyl-tetrahydrofolate]
effect on CSF folate levels: normalizes CSF folate levels
